PubChem BioAssay AID1259308, NCATS | 2017

- Assay: 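Genes whose loss raises luciferase production in HEK293 cells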 (primary screen)
- System: human HEK293 embryonic kidney cells stably expressing firefly luciferase (HEK-CMV-Luc2-Hygro)
- Reagents: single siRNA against human genes, 0.8 pmol siRNA per well
- Duration: 72 h
- Detection: 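Luciferase light (ONE-Glo) measured on one replicate plate set and viability (CellTiter-Glo) on the other, scaled to a negative control siRNA, with robust z-scores and luciferase per cell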
- Scale: total luciferase, z-score and total luciferase, % of control: higher = more reporter protein produced; luciferase per cell, z-score: higher = more reporter output per viable cell; viable cells, % of control: higher = more viable cells
- Hit rule: 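An siRNA counts as active if its total luciferase robust z-score exceeds 3; genes with two or more such siRNAs out of three were retested with fresh siRNAs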
- Meaning of the calls: active = raised luciferase; inactive = no rise
The whole screen tested about 59,000 reagents; below is an unselected part. In the full data, about 1,510 (2.6%) got an active call. 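Calls use total luciferase alone and ignore viability, so some active siRNAs may act by altering cell number.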 Entries without a mark were called inactive. Reagents against one gene are numbered here. No sequences are given here.

gene knocked down | reagent no. | total luciferase, z-score | total luciferase, % of control | luciferase per cell, z-score | viable cells, % of control
CRADD | 1 | -1.73 | 47.6 | -1.93 | 88.4
CRADD | 2 | -0.319 | 75.5 | -0.161 | 88.1
CRADD | 3 | -1.31 | 55.8 | -1.48 | 92
AP3S2 | 1 | -0.396 | 74 | -0.649 | 98.1
AP3S2 | 2 | 0.418 | 90.2 | 0.519 | 87.9
AP3S2 | 3 | 0.112 | 84.1 | -0.531 | 108
OR10K2 | 1 | -0.192 | 78.1 | -0.574 | 101
OR10K2 | 2 | -1.55 | 51 | -0.813 | 70.6
OR10K2 | 3 | -0.0736 | 80.4 | 0.636 | 76
DNTTIP1 | 1 | 1.99 | 121 | 1.07 | 103
DNTTIP1 | 2 | 2.06 | 123 | 1.14 | 102
DNTTIP1 | 3 | 0.202 | 85.9 | -0.432 | 108
DHCR24 | 1 | 1.43 | 110 | 0.92 | 96.7
DHCR24 | 2 | -0.288 | 76.2 | -0.424 | 95.1
DHCR24 | 3 | -0.644 | 69.1 | -0.722 | 93.4
CYP1B1-AS1 | 1 | 1.57 | 113 | 0.866 | 101
CYP1B1-AS1 | 2 | -0.0471 | 80.9 | -0.128 | 93.5
CYP1B1-AS1 | 3 | 1.44 | 111 | 1.17 | 90.8
SMARCA2 | 1 | -0.174 | 78.4 | -0.118 | 90.4
SMARCA2 | 2 | -0.193 | 78.1 | -0.0855 | 89.2
SMARCA2 | 3 | -0.764 | 66.7 | -1.16 | 101
TMEM150A | 1 | 1.25 | 107 | 1.02 | 91.3
TMEM150A | 2 | 0.443 | 90.7 | 0.808 | 81.9
TMEM150A | 3 | 0.267 | 87.2 | -1.08 | 129

Copied from the listing (4 entries):
gene knocked down | reagent no. | total luciferase, z-score | total luciferase, % of control | luciferase per cell, z-score | viable cells, % of control
DHCR24 | 3 | -0.644 | 69.1 | -0.722 | 93.4
CYP1B1-AS1 | 1 | 1.57 | 113 | 0.866 | 101
CYP1B1-AS1 | 2 | -0.0471 | 80.9 | -0.128 | 93.5
CYP1B1-AS1 | 3 | 1.44 | 111 | 1.17 | 90.8

Additional reagents:
gene knocked down | reagent no. | total luciferase, z-score | total luciferase, % of control | luciferase per cell, z-score | viable cells, % of control
PPIC | 1 | -0.4 | 73.9 | 0.0213 | 82.1
PPIC | 2 | -0.606 | 69.8 | -0.247 | 83.3
PPIC | 3 | -0.609 | 69.8 | -1.02 | 102
CWC15 | 1 | -0.0138 | 81.6 | 0.979 | 70.5
CWC15 | 2 | -1.75 | 47.1 | 0.849 | 42.1
CWC15 | 3 | 0.182 | 85.5 | 0.537 | 83
ZNF649 | 1 | -0.0593 | 80.7 | 0.579 | 77.4
ZNF649 | 2 | 0.505 | 91.9 | 1.13 | 76.3
ZNF649 | 3 | 1.94 | 120 | 2.45 | 70.6
P4HA2 | 1 | 2.82 | 138 | 1.69 | 98.8
P4HA2 | 2 | 2.35 | 129 | 2.13 | 82
P4HA2 | 3 | 0.657 | 95 | 0.324 | 97.4
WDR26 | 1 | -0.533 | 71.3 | -0.302 | 86.3
WDR26 | 2 | 0.19 | 85.7 | 0.456 | 84.9
WDR26 | 3 | -0.244 | 77 | 0.537 | 74.7
